Measured values as given in article PMC6363614.
These are yes or no findings as the source states them, for the method shown. In cells and extracts the contact can be indirect. A yes stands for co-enrichment or nearness to the bait. Other partners may have been found. Sequences can lack the tags named with a protein.

Sequences of proteins named here, by UniProt entry; tags and fusion partners are left off. Residues count along the entry.
UniProt P14618: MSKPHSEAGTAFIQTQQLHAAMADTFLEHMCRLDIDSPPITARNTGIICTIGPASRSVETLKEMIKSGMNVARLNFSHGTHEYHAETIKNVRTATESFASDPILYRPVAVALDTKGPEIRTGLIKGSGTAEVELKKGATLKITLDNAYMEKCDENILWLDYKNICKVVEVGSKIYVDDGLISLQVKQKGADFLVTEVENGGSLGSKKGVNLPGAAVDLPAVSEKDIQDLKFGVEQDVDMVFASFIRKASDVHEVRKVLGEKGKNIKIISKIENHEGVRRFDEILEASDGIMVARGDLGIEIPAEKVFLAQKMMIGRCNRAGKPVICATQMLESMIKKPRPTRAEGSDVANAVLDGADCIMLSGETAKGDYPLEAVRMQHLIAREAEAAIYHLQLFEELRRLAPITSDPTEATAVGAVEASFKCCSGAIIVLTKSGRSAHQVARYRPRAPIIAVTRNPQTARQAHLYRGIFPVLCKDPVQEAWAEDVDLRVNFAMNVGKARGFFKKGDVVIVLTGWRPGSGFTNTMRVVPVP
UniProt P11021, residues 19-654: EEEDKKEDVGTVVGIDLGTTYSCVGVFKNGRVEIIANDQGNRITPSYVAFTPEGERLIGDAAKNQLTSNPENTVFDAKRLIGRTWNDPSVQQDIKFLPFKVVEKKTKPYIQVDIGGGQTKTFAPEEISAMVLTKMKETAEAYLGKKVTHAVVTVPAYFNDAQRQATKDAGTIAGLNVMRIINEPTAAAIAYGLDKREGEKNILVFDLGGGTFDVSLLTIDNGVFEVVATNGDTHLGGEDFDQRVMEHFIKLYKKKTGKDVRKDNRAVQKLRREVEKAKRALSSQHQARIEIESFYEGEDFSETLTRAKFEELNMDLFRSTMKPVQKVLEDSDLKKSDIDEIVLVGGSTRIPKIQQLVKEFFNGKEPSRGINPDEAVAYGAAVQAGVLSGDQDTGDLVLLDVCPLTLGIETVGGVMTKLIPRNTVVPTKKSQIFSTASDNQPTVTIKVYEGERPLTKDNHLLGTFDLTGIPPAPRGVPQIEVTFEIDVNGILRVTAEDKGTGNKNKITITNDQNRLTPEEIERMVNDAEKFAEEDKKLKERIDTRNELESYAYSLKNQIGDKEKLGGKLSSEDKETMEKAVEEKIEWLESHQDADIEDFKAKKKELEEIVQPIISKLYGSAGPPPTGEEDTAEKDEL

T1: FLAG-tagged recombinant wild-type MANF (mesencephalic astrocyte-derived neurotrophic factor) (UniProt P55145)
T1 sequence: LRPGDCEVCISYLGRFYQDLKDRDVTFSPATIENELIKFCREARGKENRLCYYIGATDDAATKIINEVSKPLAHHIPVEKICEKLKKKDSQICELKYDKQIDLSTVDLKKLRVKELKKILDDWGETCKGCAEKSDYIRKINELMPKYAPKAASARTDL

B1: PDIA6 (protein, UniProt Q15084-1 20-440)
chain: LYSSSDDVIELTPSNFNREVIQSDSLWLVEFYAPWCGHCQRLTPEWKKAATALKDVVKVGAVDADKHHSLGGQYGVQGFPTIKIFGSNKNRPEDYQGGRTGEAIVDAALSALRQLVKDRLGGRSGGYSSGKQGRSDSSSKKDVIELTDDSFDKNVLDSEDVWMVEFYAPWCGHCKNLEPEWAAAASEVKEQTKGKVKLAAVDATVNQVLASRYGIRGFPTIKIFQKGESPVDYDGGRTRSDIVSRALDLFSDNAPPPELLEIINEDIAKRTCEEHQLCVVAVLPHILDTGAAGRNSYLEVLLKLADKYKKKMWGWLWTEAGAQSELETALGIGGFGYPAMAAINARKMKFALLKGSFSEQGINEFLRELSFGRGSTAPVGGGAFPTIVEREPWDGRDGELPVEDDIDLSDVELDDLGKDEL
B2: PRDX4 (protein, UniProt Q13162 38-271)
chain: WETEERPRTREEECHFYAGGQVYPGEASRVSVADHSLHLSKAKISKPAPYWEGTAVIDGEFKELKLTDYRGKYLVFFFYPLDFTFVCPTEIIAFGDRLEEFRSINTEVVACSVDSQFTHLAWINTPRRQGGLGPIRIPLLSDLTHQISKDYGVYLEDSGHTLRGLFIIDDKGILRQITLNDLPVGRSVDETLRLVQAFQYTDKHGEVCPAGWKPGSETIIPDPAGKLKYFDKLN

What follows are molecules tested against T1, FLAG-tagged recombinant wild-type MANF (mesencephalic astrocyte-derived neurotrophic factor) (assay: affinity purification with mass spectrometry; FLAG-tagged MANF overexpressed in HEK-293 cells; cells treated with 1 mM DSP cross-linker before lysis; lysate in 1x RIPA buffer (500 ug) incubated with antibody agarose beads overnight, washed three times in RIPA; eluate analysed by LC-MS/MS, spectral counting against 293 control, three biological replicates).

binding, binds:
TUBA1B (from UniProt P68363-1 1-451)
CCT5 (from UniProt P48643-1 1-541)
PKM (from UniProt P14618 1-531)
GRP78 (HSPA5) (from UniProt P11021 19-654)
B1
B2
